In PMC10163288:
The list shows a part of the results.

B1: il2ra_site2_2erj_normal_mot_HHH_b1_06777_000000153_0001_1_20_H_._HHH_b1_06434_0001_0000600032_0000001_0 (protein)
chain: SSSSDEVEELYEELKEALEKGDEELVHKLAWEALRLVHKLDDPELIRLLAELLTEALHFLHSSSS
B2: il2ra_site2_3nfp_normal_mot_HHH_b1_00660_af2_000000090_0001_40_57_H_._HHH_b2_05870_0001_0000700012_0000001_0_af2pred_0001_af2pred (protein)
chain: SSSSSSDEVEELIEQAEELLKKGNPEEAKEALERAALIAAELGDFELFTRIIELREKVVSSSSSS
B3: il2ra_site1_3nfp_normal_mot_eb5a5eebac1e5153f932cc6c3f4b2787_0001_af2_000000065_0001_18_33_H_._31bff7180b20e3ed47766ceefd9934be_0001_af2_0001_0000200025_0000001 … (protein)
chain: DEEKELAELIAEAVEKNDPELLEEVVQELLKKLGDPKEASRLFEELLRKAGLSPEEIYLAMELVV
B4: il2ra_site1_3nfp_sap_13_mot_HHH_b1_08347_000000157_0001_20_36_H_._HHH_b1_04342_0001_0000100004_0000001_0_0001 (protein)
chain: SSSSSSDDLEELMRLMEELFKKGDHEELRRVAEELEELAEERGDPSAEKIARFFLKALSSSSSSS
B5: il2ra_site2_2erj_normal_mot_HHH_b1_03107_000000098_0001_39_52_H_._HHH_b2_04324_0001_0000200029_0000001_0 (protein)
chain: SSSSTEEWERVAELLVQALELARRGNPEEAERLLEEAKEIAEEAGSEALKRYVEYVRRDISSSSS
B6: il2ra_site1_1z92_sap_19_mot_HHH_b1_06225_000000037_0001_38_56_H_._HHH_b2_01707_0001_0000200014_0000001_0_0001 (protein)
chain: SVEERLEEAVRRNDPELVKEILEEALKEEGVNPRMVEDLLRFAHASAGGDPEDLVRMVLAMLERA
B7: il2ra_site2_3nfp_normal_mot_HHH_b2_02437_000000052_0001_42_56_H_._HHH_b2_05093_0001_0000300021_0000001_0_af2pred_0001_af2pred (protein)
chain: SSSSSDEEEVEREVRELLELAEKIPDPRERWAVLLTAYQLALKNKDEELRRLVREVIQELSSSSS
B8: il2ra_site2_3nfp_normal_mot_HHH_b2_04451_000000238_0001_21_37_H_._HHH_b1_07051_af2_0001_0000100005_0000001_0 (protein)
chain: SSSSLEEEVEELLREARELLEEGDKYEALELVARASELAAKNNNEELAREILELFEEIQRLSSSS
B9: il2ra_site2_2erj_sap_14_mot_HHH_b1_05073_000000088_0001_40_56_H_._HHH_b2_01977_0001_0000700014_0000001_0_0001_af2pred_0001_af2pred (protein)
chain: SSSSDRWLELAIEAIERAIKRGDYEFAEIAIEILKIAAEALGDEEALERAEELREEVEKLSSSSS
B10: il2ra_site1_3nfp_sap_16_mot_HHH_b1_06381_000000036_0001_23_39_H_._HEEHE_0898_0001_0000100002_0000001_0_0001_af2pred_0001_af2pred_swapped (protein)
chain: SSSSSSDAEEEVRELLEEAKHIEDPEEARRVFEEARKIANRHNDKEAVRLIKEFVKRASSSSSSS
B11: il2ra_site1_3nfp_normal_mot_HHH_b1_03716_af2_000000072_0001_40_56_H_._HHH_b1_07927_af2_0001_0000100016_0000001_0_af2pred_0001_af2pred_swapped (protein)
chain: SSSSSDEEVEELLKELEELIKEGNSREAEELAKEISKIILELGDEELNRELLRLLREAVSSSSSS
B12: il2ra_site1_1z92_normal_mot_7f39e2d7389de0c2f60e905c27398b6a_0001_1_000000104_0001_37_51_H_._ed672b822448df934975055ed07e5099_0001_1_af2_0001_0000200011_0000001 … (protein)
chain: DEEIERLLREILEEALGDPEVAERLLELIRKHAGGDPEKVARVVARLLRAAGDPEATKKVEELLK
B13: il2ra_site2_2erj_sap_35_mot_3b06bd03f1c6bceadc68eab912867b79_0001_000000296_0001_36_50_H_._15f70e71ac3214bf43105af5abf4654e_0001_1_af2_0001_0000300007_0000001_0 … (protein)
chain: SSSSDEELRRLYELAVRLMRLLAEGDEEQLEKLLEEAREIAERLQSPNAEEVIEFLERRGSSSSS
B14: il2ra_site2_3nfp_normal_mot_9d078286af883dfa287c94d9dd69cdb5_0001_af2_000000122_0001_35_49_H_._HHH_b1_02480_af2_0001_0000400010_0000001_0 (protein)
chain: SSSSNEYAEFAAESARLQLERLGDEETLEELEKLLEEVKREGDPEAQIRLYELLRRIADERSSSS
B15: il2ra_site1_3nfp_sap_10_mot_HHH_b2_00770_af2_000000063_0001_1_19_H_._HHH_b2_07788_0001_0000400012_0000001_0_0001 (protein)
chain: NEEARRLAEAIARGDPRVEELIEELVEELKRKGDPDLRHALKALARMARSFGNPELAEELERLLK
B16: il2ra_site1_2b5i_normal_mot_d4f58537f9d5e1f361f6ea2252377c33_0001_1_000000167_0001_1_13_H_._HHH_b1_04228_0001_0000300038_0000001_0 (protein)
chain: SSSSSNERILEYAQRHLEEAERAGDERAIRRWAEMLLRQAKEVGDEEVAEYARRLLEEVSSSSSS
B17: il2ra_site1_1z92_sap_17_mot_HHH_b1_04261_000000113_0001_39_52_H_._038fe1aee5932669f1ddd6e60ea7a8eb_0001_0001_0000100010_0000001_0_0001_af2pred_0001_af2pred (protein)
chain: SSSSSSEDFERIQELFEEATRIPDPEEAREVLEEALELAERLGDERIAEEIRQFLEMAGSSSSSS
B18: il2ra_site2_2erj_normal_mot_HHH_b1_00071_af2_000000225_0001_40_56_H_._HHH_b2_01689_0001_0000800027_0000001_0 (protein)
chain: SSSSDAIEEAIEAVAEATELLAHASEEELEELLERLEKLVRELNDETTLRFVELLEKDALSSSSS

Target: il2ra, P01589
Assay: yeast display titration

Apparent Kd, inactive:
B1 no binding seen, B2 no binding seen, B3 no binding seen, B4 no binding seen, B5 no binding seen, B6 no binding seen, B7 no binding seen, B8 no binding seen, B9 > 201 nM, B10 no binding seen, B11 no binding seen, B12 no binding seen, B13 no binding seen, B14 no binding seen, B15 no binding seen, B16 no binding seen, B17 no binding seen, B18 no binding seen
